Results are given in words; binding and its absence hold for the method and conditions named. A result given as binding can be weak or reduced; the word gives no strength. Where a sequence is shown, tags or fusion partners need not be part of it.
Target: GST-UL36 recombinant protein (Dermacentor silvarum)
Assay: pull-down; Pierce GST Protein Interaction Pull-Down Kit; GST-UL36 or GST tag immobilised on glutathione agarose spin column, His-VirB10 captured, eluted with glutathione, western blot with anti-His tag; both purified

B1: His-VirB10 recombinant protein (protein, UniProt A0A2Z2LGU5 1-441)
chain: MSDETKDNNYGDGVEESVNVVGVHKSKKLFVVLVVCAITGMAYYAFFRSSGTTEKSEEPQPVIEKQDVDKLLKESEAPAQETAPRILTPPPKLPDLPPLVMPTAPELPMLTRITKKRKEEPVVEETKEILPPAADSFFEPELQRRSMEDDGPPQHIPMPYRPGGGGIPEPMPSFLGYDREKRGTPMIVLGGAGDSGAGEDSGGQGADSRFRTWSTLDGTSSPSVKATRVGDPGYVILQGHMIDAVLETAINSDIPGVLRAVVSRDVYAEAGNMVMIPKGSRLIGSYFFDASGNNTRVTVSWSRVILPHGIDIQINSAGTDELGRNGTSGVIDTKMGNVLTSTILLAGVSMGTAFVTSKIPALQSEIKDTTEEKGEKKKEEKSSTLPVKIVSDAVKDFSESMKSLIKKYADTTKPTIYVDQGTVMKVFVNQDIVFPREAVRR
B1 was tested, and the binding was “binds”.

From PMC7045605
